Reference: the supplement of paper PMC10373366
Where a name gives a salt, the structure may show the parent alone. The list shows a part of the results. Many values rest on one well or one pass, so single values are uncertain.

Tested on: patient-derived ovarian cancer cells (PDC)
Assay: cell growth inhibition ratio vs untreated control (CCK8); higher = stronger inhibition of cell viability
Conditions: 10 µM; 48 h
Description: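 Natural product library (Topscience) screened at 10 µM final concentration for 48 h on ovarian cancer A2780 cells and patient-derived ovarian cancer cells (PDC) in 96-well plates; viability read by CCK8 and reported as inhibition ratio (%) relative to untreated control. Single-dose primary screen.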

Structure (SMILES)	cell growth inhibition ratio [%]
C[C@H]1CC(=O)C[C@@H]2CC[C@H]3[C@@H]4CC[C@H](O)[C@@]4(C)CC[C@@H]3[C@]21C [Mesterolone]	13.1
CC(C)=CCC[C@](C)(O)[C@H]1CC[C@]2(C)[C@@H]1[C@H](O)C[C@@H]1[C@@]3(C)CC[C@H](O)C(C)(C)[C@@H]3[C@@H](O[C@@H]3O[C@H](CO)[C@@H](O)[C@H](O)[C@H]3O)C[C@]12C [Ginsenoside Rh1]	2.56
CN1[C@@H]2C[C@@H](OC(=O)[C@H](CO)c3ccccc3)C[C@H]1[C@@H]1O[C@@H]12 [Scopolamine HBr]	-17.2
O=C1C[C@@H]2OCC=C3CN4CC[C@]56c7ccccc7N1[C@H]5[C@H]2[C@H]3C[C@H]46 [Strychnine]	-13.3
CC(=O)OC(C)(C)/C=C/C(=O)[C@](C)(O)[C@H]1[C@H](O)C[C@@]2(C)[C@@H]3CC=C4[C@H](C[C@H](O)C(=O)C4(C)C)[C@]3(C)C(=O)C[C@]12C [Cucurbitacin B]	82.5
c1cc2c(cc1[C@H]1OC[C@H]3[C@@H]1CO[C@@H]3c1ccc3c(c1)OCO3)OCO2 [Sesamin]	-14.6
CC(=O)OCC1=C(C(=O)O)N2C(=O)[C@@H](N)[C@H]2SC1 [7-Aminocephalosporanic acid]	-0.129
COc1cc(C(=O)O[C@H]2[C@@H]3C=CO[C@@H](O[C@@H]4O[C@H](CO)[C@@H](O)[C@H](O)[C@H]4O)[C@@H]3[C@@]3(CO)O[C@@H]23)ccc1O [Picroside II]	-11.4
COc1cc([C@@H]2c3cc4c(cc3[C@@H](O)[C@H]3COC(=O)[C@H]23)OCO4)cc(OC)c1O [4'-Demethylepipodophyllotoxin]	42
Cc1c2ccncc2c(C)c2c1[nH]c1ccccc12 [Ellipticine]	53.8
C=C[C@@H]1C2=CCOC(=O)C2=CO[C@H]1O[C@@H]1O[C@H](CO)[C@@H](O)[C@H](O)[C@H]1O [Gentiopicrin]	6.41
COc1ccc2c(c1OC)CN1CCc3cc4c(cc3C1C2)OCO4 (centres undefined) [Tetrahydroberberine THB]	2.64
Cc1nccc2c1[nH]c1ccccc12 [Harmane]	10.9
C[C@@H]1C[C@@H]([C@H](O)CC2CC(=O)NC(=O)C2)C(=O)[C@@H](C)C1 [Actidione]	62.9
CN1[C@@H]2CC[C@H]1C[C@@H](OC(=O)C(CO)c1ccccc1)C2 (some centres undefined) [Atropine]	4.22
C/C=C(\C)C(=O)N[C@@H](c1ccccc1)[C@@H](O)C(=O)O[C@H]1C[C@@]2(O)[C@@H](OC(=O)c3ccccc3)[C@@H]3[C@]4(OC(C)=O)CO[C@@H]4C[C@H](O)[C@@]3(C)C(=O)[C@H](OC(C)=O)C(=C1C)C2(C)C [Cephalomannine]	61.5
C=C[C@H]1CN2CC[C@H]1C[C@H]2[C@H](O)c1ccnc2ccccc12 [Cinchonidine]	-6.46

Taken from the entries so far, three compounds:
Structure (SMILES)	cell growth inhibition ratio [%]
CC(=O)OC(C)(C)/C=C/C(=O)[C@](C)(O)[C@H]1[C@H](O)C[C@@]2(C)[C@@H]3CC=C4[C@H](C[C@H](O)C(=O)C4(C)C)[C@]3(C)C(=O)C[C@]12C [Cucurbitacin B]	82.5
c1cc2c(cc1[C@H]1OC[C@H]3[C@@H]1CO[C@@H]3c1ccc3c(c1)OCO3)OCO2 [Sesamin]	-14.6
CC(=O)OCC1=C(C(=O)O)N2C(=O)[C@@H](N)[C@H]2SC1 [7-Aminocephalosporanic acid]	-0.129

(next part)

Structure (SMILES)	cell growth inhibition ratio [%]
CN(C)CCc1ccc(O)cc1 [Hordenine]	10.1
CC(C)(C)[C@]1(O)CC2OC(=O)CC23C(=O)OC2OC(=O)[C@H](O)C231 (some centres undefined) [Bilobalide]	4.87
CC(=O)O[C@H]1CC[C@H]2[C@@H]3CCC4=CC(=O)CCC4=C3C=C[C@]12C [Trenbolone acetate]	-14
COc1ccc(C(=O)O)cc1OC [Veratric acid]	-0.589
COc1cc(O)cc(/C=C/c2ccc(O)cc2)c1 [Pinostilbene]	13.6
CCC1=C[C@H]2CN3CCc4c([nH]c5ccccc45)[C@](C(=O)OC)(C2)[C@H]13 [Catharanthine]	-1.01
COc1ccc2c3c([nH]c2c1)C(C)=NCC3 [Harmaline]	-1.29
COc1cccc(C=O)c1OC [o-Veratraldehyde]	6.26
C[C@H]1C(=O)O[C@@H]2CCN3CC=C(COC(=O)[C@](C)(O)[C@]1(C)O)[C@H]23 [Monocrotaline]	-14.3
CC(=O)O[C@H]1[C@H]2[C@@H](OC(=O)Cc3ccccc3)[C@@H](C)C[C@]2(OC(C)=O)C(=O)/C(C)=C/[C@@H]2[C@H](CC[C@@]13CO3)C2(C)C [Euphorbiasteroid]	11.9
Cc1cc2c(C(C)C)c(O)c(O)c(C=O)c2c(O)c1-c1c(C)cc2c(C(C)C)c(O)c(O)c(C=O)c2c1O [Gossypol]	-23.2
COc1ccc2c(c1)[nH]c1c(C)nccc12 [Harmine]	39.3
COC1=C[C@]23CCCN2CCc2cc4c(cc2[C@@H]3[C@@H]1O)OCO4 [Cephalotaxine]	-2.64
CCO[C@H]1O[C@@H]2O[C@@]3(C)CC[C@H]4[C@H](C)CC[C@@H]([C@H]1C)[C@@]24OO3 [Arteether]	0.696
C#C[C@]1(O)CC[C@H]2[C@@H]3CCC4=CC(=O)CC[C@]4(C)[C@H]3CC[C@@]21C [Ethisterone]	2.43
C[C@@]12C(=O)OC(=O)[C@]1(C)[C@H]1CC[C@@H]2O1 [Cantharidin]	75.4
COc1ccc(Cc2nccc3cc(OC)c(OC)cc23)cc1OC [Papaverine hydrochloride]	4.36
